Data: US20190037899A1, “Intramolecular Trans-Sialidase” (THE INSTITUTE OF FOOD RESEARCH, priority 2016, published 2019)
For at least one compound, name, drawing or mass did not settle the structure.

Key:
RgNanH [1] = experiment: Specificity of RgNanH against sialylated oligosaccharides (HPAEC-PAD); type: biochemical, Ruminococcus gnavus ATCC 29149; conditions: 1 mM substrate, 1 nM enzyme, 37° C., pH 6.5, overnight
RgNanH [2] = molecular target: T1, RgNanH (Mediterraneibacter gnavus, UniProt A7B557); experiment: Inhibition of RgNanH activity against 4MU-Neu5Ac by neuraminidase inhibitors; conditions: ratio of IC50 values
T1 sequence (A7B557 26-723): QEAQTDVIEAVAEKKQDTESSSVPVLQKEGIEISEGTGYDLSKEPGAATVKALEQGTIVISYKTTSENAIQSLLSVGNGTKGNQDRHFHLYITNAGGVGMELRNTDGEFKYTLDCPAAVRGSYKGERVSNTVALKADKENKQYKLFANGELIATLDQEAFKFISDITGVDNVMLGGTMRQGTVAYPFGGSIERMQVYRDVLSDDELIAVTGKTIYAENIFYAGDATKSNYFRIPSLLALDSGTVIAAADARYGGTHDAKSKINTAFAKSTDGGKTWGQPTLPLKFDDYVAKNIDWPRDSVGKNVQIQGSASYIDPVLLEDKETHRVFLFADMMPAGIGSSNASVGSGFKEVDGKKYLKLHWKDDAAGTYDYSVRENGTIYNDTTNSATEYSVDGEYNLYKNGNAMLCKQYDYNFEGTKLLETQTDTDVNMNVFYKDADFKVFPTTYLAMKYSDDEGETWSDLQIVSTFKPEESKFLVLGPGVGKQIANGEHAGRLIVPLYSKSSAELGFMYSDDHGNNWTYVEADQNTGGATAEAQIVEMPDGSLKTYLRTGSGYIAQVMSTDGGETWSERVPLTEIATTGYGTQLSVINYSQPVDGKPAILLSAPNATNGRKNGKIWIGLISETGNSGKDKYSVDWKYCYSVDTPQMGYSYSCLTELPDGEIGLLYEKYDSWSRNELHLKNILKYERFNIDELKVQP

SMILES | Activity, RgNanH (RgNanH [1]) | Improvement in inhibition of RgNanH relative to Neu5Ac2en (RgNanH [2])
CC(=O)N[C@H]1[C@H]([C@H](O)[C@H](O)CO)OC(OC[C@H]2OC(O)[C@H](O)[C@@H](O)[C@H]2O)(C(=O)O)C[C@@H]1O (stereo partly drawn) [6′ sialylgalactose, Neu5Ac-α-2-6-Gal] | − | 
CCC(CC)O[C@@H]1C=C(C(=O)O)C[C@H](N)[C@H]1NC(C)=O [Oseltamivir carboxylate] |  | ~50 fold
